Assay results reported in PubChem BioAssay AID662 (National Center for Advancing Translational Sciences (NCATS), 2007).
Several values for one entry are separate records, joined by “and”; a condition that tells them apart may be missing. Identical values can stand only once. This is one part of the list. These are further read-outs of the screen, such as a control signal, another cell line or another target. No call is given for them. Compounds called inactive in the main read-out are mostly missing here. The note in brackets gives the kind of curve behind each potency; many fits are weak.

Experiment: Cell signaling CRE-BLA (Fsk stim)
Conditions: CHO CRE-bla reporter (cAMP response element driving beta-lactamase), forskolin EC10, beta-lactamase ratio; measured here: 460 nm blue channel
Method in brief: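 Reporter-gene assay: CHO cells with beta-lactamase behind cAMP responsive elements, co-treated with compound and EC10 NKH 477 for 3 hours at 37 degrees Celsius. Activity came from the 460/530 nm CCF4 emission ratio.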

Q: For NC(=O)c1c(NC(=O)C2CCCO2)sc2c1CCC2 (stereo unspecified), which AC50 is on record?
A: The AC50 was 12.6 µM [rising, single point].

Q: Which AC50 does the source give for CCOc1ccccc1NC(=O)CCSc1nc2n[nH]c(C)c2c(=N)n1-c1ccccc1Cl here?
A: The AC50 was 1.26 µM [rising, full curve].

Q: For Cn1c(=O)c2c(nc(OCc3cccnc3)n2Cc2c(F)cccc2Cl)n(C)c1=O, which AC50 is on record?
A: The AC50 was 1.58 µM [rising, full curve].

Q: With CCCCOc1ccc(C(=O)Oc2ccc(C)nc2)cc1 as the compound, how does the AC50 read?
A: Its AC50 is 0.0251 µM [falling, full curve, poor fit].

Q: For N#Cc1nc(Cc2ccccc2)oc1N1CCC(C(N)=O)CC1, which AC50 is on record?
A: The AC50 was 2 µM [falling, full curve, poor fit].

Q: With O=C(CCS(=O)(=O)c1ccc(Br)cc1)N1CCN(c2ccccc2)CC1 as the compound, how does the AC50 read?
A: The AC50 was 0.398 µM [falling, full curve].

Q: Which AC50 does the source give for CN(CC(=O)Nc1ccc(F)c(F)c1F)c1cnccn1 here?
A: Its AC50 is 0.00398 µM [falling, full curve, poor fit].

Q: With O=C(c1cc2nc3c(c(C(F)(F)F)n2n1)CCc1ccccc1-3)N1CCN2CCCC2C1 (stereo unspecified) as the compound, how does the AC50 read?
A: The AC50 was 12.6 µM [rising, partial curve, poor fit].

Q: Which AC50 does the source give for CC(C)C(=O)Nc1c(C(=O)c2ccc(F)cc2)oc2ccccc12 here?
A: The AC50 was 10 µM [rising, partial curve].

Q: Which AC50 does the source give for COc1ccc(OC)c(NC(=O)CCN2CCN(c3ccccc3F)CC2)c1 here?
A: Its AC50 is 0.00316 µM [falling, full curve, poor fit].

Q: Which AC50 does the source give for COc1cc2cc(CN(Cc3nnnn3C3CCCC3)C3CCCC3)c(=O)[nH]c2cc1OC here?
A: The AC50 was 25.1 µM [rising, single point].

Q: Which AC50 does the source give for CCOC(=O)c1c(N)c(C#N)cn1-c1ccccc1 here?
A: The AC50 was 10 µM [rising, partial curve].

Q: For COc1ccc(C)cc1NC(=O)CNC(=O)Cn1ccc2ccccc2c1=O, which AC50 is on record?
A: The AC50 was 0.2 µM [falling, partial curve].

Q: Which AC50 does the source give for CCn1c(SCC(=O)c2[nH]c(C)c(C(C)=O)c2C)nnc1-c1ccncc1 here?
A: The AC50 was 0.158 µM [rising, full curve, poor fit].

Q: With N#CC1=C(N)SC(N)=C(C#N)C1c1ccnc2ccccc12 as the compound, how does the AC50 read?
A: Its AC50 is 3.98 µM [falling, partial curve].

Q: With CCN(C(=O)c1cnc(N2CCN(c3ncccn3)CC2)c2ccccc12)c1cccc(Cl)c1 as the compound, how does the AC50 read?
A: Its AC50 is 0.00316 µM [falling, full curve, poor fit].

Q: For CCCCN1C(=O)C2ON(c3ccccc3C)C(c3ccco3)C2C1=O (stereo unspecified), which AC50 is on record?
A: Its AC50 is 0.501 µM [rising, partial curve].

Q: With O=C(Nc1ccccc1Cl)c1c(F)c(F)c(F)c(F)c1F as the compound, how does the AC50 read?
A: Its AC50 is 0.398 µM [falling, partial curve, poor fit].

Q: Which AC50 does the source give for CCOCN(C(=O)Cn1c(CO)nc2ccccc21)c1c(C)cccc1CC here?
A: Its AC50 is 1 µM [falling, partial curve].

Q: Which AC50 does the source give for Fc1ccc(-c2nnc3sc(-c4ccc5c(c4)OCO5)nn23)cc1 here?
A: Its AC50 is 10 µM [rising, single point].

Q: For O=c1c2[nH]c3ccc(Br)cc3c2ncn1CCCn1ccnc1, which AC50 is on record?
A: Its AC50 is 12.6 µM [rising, partial curve].

Q: For CCOC(=O)c1c(NC(=O)CN2CCOCC2)sc2c1CCCC2=O, which AC50 is on record?
A: Its AC50 is 12.6 µM [rising, partial curve].

Q: With N#Cc1c(N)nc(SCc2ccccc2)c(C#N)c1-c1ccco1 as the compound, how does the AC50 read?
A: The AC50 was 3.16 µM [rising, full curve].

Q: With O=C(CSc1nc2ccccc2[nH]1)Nc1ccccc1N1CCOCC1 as the compound, how does the AC50 read?
A: Its AC50 is 10 µM [rising, partial curve].

Q: With CCCNc1nc2c(c(=O)[nH]c(=O)n2C)n1CCc1ccccc1 as the compound, how does the AC50 read?
A: Its AC50 is 12.6 µM [rising, partial curve].

Q: For CCCc1nc(-c2ccccc2O)n(-c2ccccc2)n1, which AC50 is on record?
A: Its AC50 is 10 µM [rising, partial curve].

Q: Which AC50 does the source give for COc1ccc(C)cc1NC(=O)CN1CCN(S(=O)(=O)c2ccc(Cl)cc2)CC1 here?
A: The AC50 was 0.398 µM [falling, partial curve].

Q: For CN(C)C(=O)c1ccc(-c2ccc3ncnc(Nc4ccccc4)c3c2)cc1, which AC50 is on record?
A: The AC50 was 6.31 µM [rising, partial curve].

Q: Which AC50 does the source give for COc1cc(C(=O)NCC(=O)OCC(=O)c2ccc[nH]2)cc(OC)c1OC here?
A: Its AC50 is 15.8 µM [rising, single point].

Q: Which AC50 does the source give for CCOc1cc(C#N)c(NC(=O)c2cccnc2)cc1OCC here?
A: Its AC50 is 10 µM [rising, single point].

Q: For Cc1cccc(N2CCN(C(=O)c3cc4n(n3)C(C(F)(F)F)CC(c3ccco3)N4)CC2)c1C (stereo unspecified), which AC50 is on record?
A: Its AC50 is 20 µM [falling, partial curve].

Q: For CCn1c(SCC(=O)Nc2nc3c(s2)CCCC3)nnc1-c1ccccc1, which AC50 is on record?
A: The AC50 was 10 µM [rising, single point].

Q: With O=C1CC(Nc2ccc(N3CCOCC3)cc2)C(=O)N1C1CCCCC1 (stereo unspecified) as the compound, how does the AC50 read?
A: The AC50 was 3.16 µM [falling, single point].

Q: For CCn1c(SCc2nc(-c3ccccc3)no2)nc2ccccc21, which AC50 is on record?
A: Its AC50 is 12.6 µM [rising, partial curve].

Q: Which AC50 does the source give for CC1CCN(C(=O)CN(c2ccc3c(c2)OCO3)S(C)(=O)=O)CC1 here?
A: Its AC50 is 0.00316 µM [falling, full curve, poor fit].

Q: Which AC50 does the source give for Cc1oc(-c2ccc(F)cc2)cc1-c1nn2c(-c3ccoc3C)nnc2s1 here?
A: Its AC50 is 12.6 µM [rising, single point].

Q: For COCCCNC(=O)c1c(N)n(-c2ccc3c(c2)OCO3)c2nc3ccccc3nc12, which AC50 is on record?
A: The AC50 was 12.6 µM [rising, partial curve].

Q: For CC(C)(C)OC(=O)N1CCC(C(=O)N2CCC[C@H]2C(=O)O)CC1, which AC50 is on record?
A: Its AC50 is 5.01 µM [falling, partial curve].

Q: For O=C(O)Cn1nnnc1SCC(=O)Nc1ccc(OC(F)(F)F)cc1, which AC50 is on record?
A: The AC50 was 7.94 µM [falling, partial curve, poor fit].

Q: For C=CCn1c(NCCO)nc2sc3c(c2c1=O)CCC3, which AC50 is on record?
A: Its AC50 is 12.6 µM [rising, partial curve].

Q: Which AC50 does the source give for Cc1cc(C(=O)CN2C(=O)c3ccccc3C2=O)c(C)n1C1CC1 here?
A: Its AC50 is 5.01 µM [falling, single point].

Q: For O=C(Nc1cccc(-c2nc3ncccc3o2)c1)c1cc2ccccc2o1, which AC50 is on record?
A: Its AC50 is 25.1 µM [falling, single point].

Q: For COC(=O)c1cn(NC(=O)c2cnccn2)c(=O)c2ccccc12, which AC50 is on record?
A: Its AC50 is 0.0794 µM [falling, partial curve, poor fit].

Q: For COc1ccccc1Nc1nc(N)nc(CSc2nnc(C)s2)n1, which AC50 is on record?
A: Its AC50 is 12.6 µM [rising, partial curve].

Q: Which AC50 does the source give for CCOC(=O)Cc1csc(NC(=O)CSc2ncnc3c2cnn3-c2ccc(OC)cc2)n1 here?
A: Its AC50 is 12.6 µM [rising, partial curve].

Q: Which AC50 does the source give for NC(=O)CS(=O)(=O)c1nc2ccccc2n1Cc1ccccc1F here?
A: Its AC50 is 12.6 µM [falling, single point].

Q: For COc1ccc(-c2cc3nc4c(c(N5CCC6(CC5)OCCO6)n3n2)CCCC4)cc1, which AC50 is on record?
A: The AC50 was 2.51 µM [rising, full curve].

Q: For Nn1cc(-c2ccccc2)nc1SCC(=O)N1CCN(S(=O)(=O)c2ccccc2)CC1, which AC50 is on record?
A: The AC50 was 5.01 µM [falling, partial curve].

Q: For Cc1ccc(-c2csc3ncnc(OCC(=O)NC(=O)NCc4ccco4)c23)cc1, which AC50 is on record?
A: Its AC50 is 0.251 µM [falling, full curve, poor fit].

Q: With Cn1c(C(=O)NCCCN2CCCC2=O)cc2c(=O)n(C)c3ccccc3c21 as the compound, how does the AC50 read?
A: The AC50 was 3.98 µM [rising, full curve].

Q: For COc1ccc(-c2nc(CS(=O)CC(=O)NC3CCCc4ccccc43)c(C)o2)cc1OC (stereo unspecified), which AC50 is on record?
A: The AC50 was 5.01 µM [rising, partial curve].

Q: Which AC50 does the source give for Brc1c(OCCOCCn2cncn2)ccc2ccccc12 here?
A: Its AC50 is 10 µM [rising, partial curve].

Q: Which AC50 does the source give for CC(C)(C)C1CCC2(CC1)NC(CO)(CO)CO2 (stereo unspecified) here?
A: Its AC50 is 0.00398 µM [falling, full curve, poor fit].

Q: Which AC50 does the source give for COc1ccc(NS(=O)(=O)c2ccc(Oc3ncccn3)cc2)cc1 here?
A: The AC50 was 2 µM [falling, partial curve].

Q: For COc1ccc(CN2C(=O)[C@@H]3C(c4ccccc4Cl)=NO[C@@H]3C2=O)cc1, which AC50 is on record?
A: The AC50 was 0.00631 µM [falling, full curve, poor fit].

Q: Which AC50 does the source give for CSc1nnc(NC(=O)C2CCCCC2)s1 here?
A: Its AC50 is 3.98 µM [rising, single point].

Q: For CC(C)(C)n1ncc2c(=O)n(CC(=O)N3CCc4ccccc43)cnc21, which AC50 is on record?
A: The AC50 was 0.126 µM [falling, full curve].

Q: With CC[C@@H]1CN2CCc3cc(OC)c(OC)cc3[C@H]2C[C@@H]1C[C@H]1NCCc2cc(OC)c(OC)cc21 as the compound, how does the AC50 read?
A: The AC50 was 5.01 µM [falling, partial curve] and 251 nM [falling, full curve].

Q: With CNc1nc(SC)nc(N2CCOCC2)n1 as the compound, how does the AC50 read?
A: The AC50 was 7.94 µM [rising, partial curve].

Q: Which AC50 does the source give for COC(=O)CN(c1ccc(OC)cc1)S(=O)(=O)c1ccc(OC)c(OC)c1 here?
A: The AC50 was 10 µM [rising, partial curve].

Q: With O=C(c1cccs1)N1CCN(S(=O)(=O)N2CCOCC2)CC1 as the compound, how does the AC50 read?
A: The AC50 was 0.00398 µM [falling, full curve, poor fit].

Q: For O=C(NCCc1ccccc1)C1CCN(S(=O)(=O)c2cccs2)CC1, which AC50 is on record?
A: Its AC50 is 5.01 µM [falling, single point].

Q: For O=C(Nc1ccc(F)cc1)N(CCCN1CCOCC1)Cc1cc2cc3c(cc2[nH]c1=O)OCO3, which AC50 is on record?
A: The AC50 was 12.6 µM [rising, partial curve].

Q: With Cn1c(C(=O)NCc2ccccn2)cc2c(=O)n3ccccc3nc21 as the compound, how does the AC50 read?
A: Its AC50 is 10 µM [rising, partial curve].

Q: For Cn1c(=O)[nH]c(=O)c2c1nc(NCc1ccccc1)n2CCCc1ccccc1, which AC50 is on record?
A: The AC50 was 3.98 µM [rising, partial curve, poor fit].

Q: Which AC50 does the source give for O=c1cc(N2CCc3ccccc3C2)[nH]c(=O)n1Cc1ccc(F)cc1 here?
A: Its AC50 is 1.26 µM [rising, full curve, poor fit].
